Test results as given in the supplement of paper PMC12024529.
Counter-ions that a name gives are not always drawn. This is one part of the list. Part of the spread comes from offsets between plates or batches.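 HEK293 lines stably express B-domain-deleted factor VIII fused to Gaussia luciferase, wild type or a misfolding-prone missense mutant. Scores equal triplicate-well mean luminescence minus DMSO mean, divided by DMSO standard deviation; scores of 2 or higher are hits. Low scores may indicate reduced secretion or worse cell viability.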

Legend:
HEK293 WT BDD-FVIII-Gluc = experiment: secreted FVIII-Gluc luciferase Z-score vs DMSO control; higher = more FVIII-Gluc secretion; conditions: 5 µM; 24 h
[1] = test system: HEK293 p.N1941S BDD-FVIII-Gluc; experiment: as above; conditions: 5 µM; 24 h

SMILES	secreted FVIII-Gluc luciferase Z-score (HEK293 WT BDD-FVIII-Gluc)	secreted FVIII-Gluc luciferase Z-score [1]
CSc1nc2cc(Cl)c(Oc3cccc(Cl)c3Cl)cc2[nH]1 [Triclabendazole]	inactive: 0.349	inactive: 0.46
CN1CC(=O)N2[C@H](c3ccc4c(c3)OCO4)c3[nH]c4ccccc4c3C[C@@H]2C1=O [Tadalafil (Cialis)]	inactive: -2.26	inactive: -1.09
COc1cc(Nc2c(C#N)cnc3cc(OCCCN4CCN(C)CC4)c(OC)cc23)c(Cl)cc1Cl [Bosutinib (SKI-606)]	inactive: -3.26	inactive: -11.1
[O-][n+]1cccc(CO)c1 [Mepiroxol]	inactive: 0.909	inactive: 1.17
CCCCOc1ccc(CC(=O)NO)cc1 [Bufexamac]	inactive: -1.84	inactive: 0.0149
CCn1cc(C(=O)O)c(=O)c2cc(F)c(N3CCN(C)CC3)cc21 [Pefloxacin mesylate]	inactive: 1.96	inactive: -0.053
C[C@H]1C[C@H]2[C@@H]3CCC4=CC(=O)C=C[C@]4(C)[C@H]3C(=O)C[C@]2(C)[C@@]1(O)C(=O)CO [Betapar (Meprednisone)]	inactive: 0.156	inactive: 0.746
CCC(=O)O[C@]1(C(=O)SCF)[C@H](C)C[C@H]2[C@@H]3C[C@H](F)C4=CC(=O)C=C[C@]4(C)[C@@]3(F)[C@@H](O)C[C@@]21C [Fluticasone propionate (Flonase, Veramyst)]	active: 8.24	active: 8.59
NNC(=O)c1ccncc1 [Isoniazid (Tubizid)]	inactive: -1.21	inactive: 0.351
CN1C(C(=O)Nc2ccccn2)=C(O)c2sc(Cl)cc2S1(=O)=O [Lornoxicam (Xefo)]	inactive: -1.84	inactive: -2.47
CCCC(CCC)C(=O)O[C@H]1C[C@H]2CC[C@@H](C1)[N+]2(C)C [Anisotropine Methylbromide]	inactive: 0.25	inactive: 0.823
CNCC[C@@H](Oc1ccccc1C)c1ccccc1 [Atomoxetine HCl]	inactive: -0.944	inactive: 0.307
COC(=O)C1=C(C)NC(C)=C(C(=O)OCCN(C)Cc2ccccc2)C1c1cccc([N+](=O)[O-])c1 (centres undefined) [Nicardipine HCl]	inactive: -0.0466	inactive: 0.578
CC1Cc2ccccc2N1NC(=O)c1ccc(Cl)c(S(N)(=O)=O)c1 (centres undefined) [Indapamide (Lozol)]	inactive: -4.82	inactive: 0.195
CC(=O)OCC(=O)[C@@]12OC(C)(C)O[C@@H]1C[C@H]1[C@@H]3C[C@H](F)C4=CC(=O)C=C[C@]4(C)[C@@]3(F)[C@@H](O)C[C@@]12C [Fluocinonide (Vanos)]	active: 12.3	active: 2.92
O=C(OCC(O)CO)c1ccccc1Nc1ccnc2cc(Cl)ccc12 (centres undefined) [Glafenine HCl]	inactive: -0.279	inactive: 1.31

SMILES	secreted FVIII-Gluc luciferase Z-score (HEK293 WT BDD-FVIII-Gluc)	secreted FVIII-Gluc luciferase Z-score [1]
Nc1nc(=O)[nH]cc1F [Flucytosine (Ancobon)]	inactive: -2.98	inactive: 0.438
O=C(O)CCCC[C@@H]1SC[C@@H]2NC(=O)N[C@@H]21 [Biotin (Vitamin B7)]	inactive: -0.969	inactive: 0.407
COc1cc(C(=O)NS(=O)(=O)c2ccccc2C)ccc1Cc1cn(C)c2ccc(NC(=O)OC3CCCC3)cc12 [Zafirlukast (Accolate)]	inactive: -1.59	inactive: 0.813
C[C@H](Cn1cnc2c(N)ncnc21)OCP(=O)(O)O [Tenofovir]	inactive: -1.36	inactive: -0.198
Clc1ccc(CCC(Cn2ccnc2)Sc2c(Cl)cccc2Cl)cc1 (centres undefined) [Butoconazole nitrate]	inactive: -0.645	inactive: -1.52
O=C(O)/C=C/c1ccc(Cn2ccnc2)cc1 [Ozagrel]	inactive: 0.245	inactive: -1.32
O=c1cc[nH]c(=S)[nH]1 [2-Thiouracil]	inactive: 0.842	inactive: 0.0535
Cc1c(C(=O)NN2CCCCC2)nn(-c2ccc(Cl)cc2Cl)c1-c1ccc(Cl)cc1	inactive: -4.39	inactive: -0.994
Cc1noc(NS(=O)(=O)c2ccc(N)cc2)c1C [Sulfisoxazole]	inactive: -2.68	active: 3.99
CCN(CC)CC#CCOC(=O)C(O)(c1ccccc1)C1CCCCC1 (centres undefined) [Oxybutynin chloride]	inactive: 0.469	inactive: -0.24
COc1ccccc1OCC(O)CO (centres undefined) [Guaifenesin (Guaiphenesin)]	inactive: -0.669	inactive: -1.24
CCN(CC)CC#CCOC(=O)C(O)(c1ccccc1)C1CCCCC1 (centres undefined) [Oxybutynin (Ditropan)]	inactive: -1.67	inactive: -0.706
C[N+]1(C)[C@@H]2CC[C@H]1C[C@@H](OC(=O)C(O)c1ccccc1)C2 (some centres undefined) [Homatropine Methylbromide]	inactive: -0.166	inactive: 0.666
NC(=O)c1cnccn1 [Pyrazinamide (Pyrazinoic acid amide)]	inactive: -1.16	inactive: -0.0652
CS(=O)(=O)OCCCCOS(C)(=O)=O [Busulfan (Myleran, Busulfex)]	inactive: -1.05	inactive: 0.863
C[C@]12C=CC(=O)N[C@@H]1CC[C@@H]1[C@@H]2CC[C@]2(C)[C@@H](C(=O)Nc3cc(C(F)(F)F)ccc3C(F)(F)F)CC[C@@H]12 [Dutasteride]	inactive: -2.95	inactive: 0.866

Part of the list above in another layout:
SMILES | secreted FVIII-Gluc luciferase Z-score (HEK293 WT BDD-FVIII-Gluc) | secreted FVIII-Gluc luciferase Z-score [1]
CCN(CC)CC#CCOC(=O)C(O)(c1ccccc1)C1CCCCC1 (centres undefined) [Oxybutynin chloride] | inactive: 0.469 | inactive: -0.24
COc1ccccc1OCC(O)CO (centres undefined) [Guaifenesin (Guaiphenesin)] | inactive: -0.669 | inactive: -1.24
